Hit rate of the full screen: of about 330,000 compounds, about 7,700 (2.3%) were called active. Inconclusive means that the source gave no clear call. Such entries were picked first, then a sample of the others. The call rests on the fitted dose curve; in most records, active means well fitted inhibition curve with a large enough effect; inconclusive means small, poorly fitted or top-dose-only effect, or effect the other way; inactive means flat fitted curve, though single readings scatter. A potency beside an inconclusive call is a rough fit, not a confirmed value.
Test: qHTS screen for small molecules that inhibit ELG1-dependent DNA repair in human embryonic kidney (HEK293T) cells expressing luciferase-tagged ELG1; further: nearly all actives have a fitted effect of over 55% in size
Conditions: HEK293T ELG1-luciferase reporter, luminescence, 16 h, DNA damage induced by 5-fluorouridine; series mostly up to 46.1 µM
How it was run: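 In this reporter screen, reduction of luminescence relative to DMSO vehicle indicated activity. Compounds and 5-fluorouridine were added together to 2,000 cells per well, incubated for 16 hr at 37 °C, then developed with ONE-Glo.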
With `COCCNC(=S)N1CCN(Cc2cccc(OC)c2)CC1` the Potency was “inactive”.
For `COc1ccc(CNc2cc([N+](=O)[O-])ccc2OC)cc1`, the Potency was “inactive”.
In the case of `O=C(c1ccc2oc(CCCc3ccccc3)nc2c1)N1CCCC(CCCO)C1` (stereo unspecified), the Potency was inconclusive: 23.1 µM [activator, single point].
With `CC1CCN(C(=O)c2cc3ccccc3o2)CC1` the Potency was inconclusive: 14.6 µM [activator, partial curve].
For `COc1cc(SC)ccc1C(=O)Nc1ccc(C)cc1`, the Potency was inconclusive: 7.3 µM [activator, partial curve].
With `O=C(N/N=C/c1cccnc1)c1cc(-c2ccccc2OCc2ccccc2)n[nH]1` the Potency was inconclusive: 20.6 µM [inhibitor, single point].
In the case of `S=c1[nH]nc(-c2ccncc2)n1/N=C/c1cccc2ccccc12`, the Potency was “inactive”.
In the case of `COC(=O)c1cc2n(n1)CCN(Cc1cccc(OC)c1)C2=O`, the Potency was inconclusive: 0.146 µM [inhibitor, single point].
In the case of `CCN(c1ccccc1)S(=O)(=O)c1ccc2c(c1)CC(C)N2C(=O)C1CC1` (stereo unspecified), the Potency was “inactive”.
In the case of `CCCC(=O)N1CCc2cc(-c3nc(N)sc3C)ccc21`, the Potency was inconclusive: 16.4 µM [activator, partial curve].
With `Cc1cc(C)c(C)c(S(=O)(=O)Nc2cccc(-n3cnnn3)c2)c1C` the Potency was “inactive”.
With `Cc1ccc(N(CC(=O)NC2CCCC2)C(=O)CCC(=O)Nc2ccccn2)cc1` the Potency was “inactive”.
In the case of `COCCNC(=O)[C@@H]1CCCN1C(=O)C1CCN(S(=O)(=O)c2ccc(C)cc2)CC1`, the Potency was “inactive”.
In the case of `N#CCC(=O)N/N=C/c1c(-c2ccccc2)n(-c2ccccc2)c2ccccc12`, the Potency was inconclusive: 25.9 µM [inhibitor, single point].
In the case of `COc1ccccc1NS(=O)(=O)c1cc(NC(=O)c2cccs2)ccc1N1CCCCC1`, the Potency was “inactive”.
With `CCC(C)c1ccc2oc(-c3ccc(NC(=O)c4ncn[nH]4)cc3)nc2c1` (stereo unspecified) the Potency was inconclusive: 8.2 µM [activator, partial curve].
With `COc1ccc(Cn2c(-c3ccc(C)cc3)nc3c(c(=O)c4ccccc4n3C)c2=O)cc1` the Potency was inconclusive: 18.4 µM [inhibitor, single point].
With `c1ccc(-c2csc(Nc3ccccn3)n2)cc1` the Potency was inconclusive: 1.46 µM [activator, partial curve].
With `COc1ccc(CNC(=O)C2CCCN(c3ncnc4c3nc3n4CCCCC3)C2)cc1` (stereo unspecified) the Potency was “inactive”.
For `CCOCCCn1c(SCC(=O)Nc2cc(C(C)(C)C)nn2-c2ccccc2)nc2ccccc2c1=O`, the Potency was inconclusive: 16.4 µM [inhibitor, partial curve].
With `CC12CCC(=O)N1C(C(=O)NNC(=O)c1ccccc1)CS2` (stereo unspecified) the Potency was inconclusive: 10.3 µM [activator, partial curve].
In the case of `COc1ccc(OCCSc2nc3nc(C)cc(C)n3n2)cc1`, the Potency was “inactive”.
In the case of `O=C(Cn1cnc2ccccc21)Nc1ccc2c(c1)OCCCO2`, the Potency was inconclusive: 29.1 µM [activator, single point].
With `Cc1cc(C)nc(N/N=C/c2cccc(Cl)c2)n1` the Potency was inconclusive: 18.3 µM [activator, partial curve, poor fit].
In the case of `COc1ccc(NC(=O)CN2CCN(S(=O)(=O)c3ccc(Br)cc3)CC2)c(OC)c1`, the Potency was “inactive”.
With `CC(=O)Nc1cccc(C(=O)NNC(=O)c2ccccc2-n2cccc2)c1` the Potency was “inactive”.
With `COC(=O)NNC(=O)c1ccc(Cl)cc1Cl` the Potency was “inactive”.
In the case of `O=C(NCc1ccco1)c1cc(C(=O)C2CCCCC2)c[nH]1`, the Potency was inconclusive: 5.62 µM [activator, partial curve, poor fit].
In the case of `COc1ccc(C(=O)/C=C/c2ccc(OC)c(COc3ccccc3F)c2)cc1`, the Potency was inconclusive: 23.1 µM [inhibitor, single point].
In the case of `COc1ccc(C(=O)c2sc(Nc3cccc(OC)c3)c(C(=O)Nc3cccc(C)c3C)c2N)cc1`, the Potency was inconclusive: 32.6 µM [inhibitor, single point].
For `Cc1ccc(CSc2nnnn2C)cc1`, the Potency was inconclusive: 28.2 µM [activator, single point].
With `CCN(CC)S(=O)(=O)c1cc(OC)ccc1N=Nc1ccc(O)c2ncccc12` the Potency was inconclusive: 4.61 µM [inhibitor, partial curve].
With `Cc1ccc(OCCN2C(=O)C(=O)c3cccc(C)c32)cc1` the Potency was “inactive”.
For `COC(=O)c1ccc(NCC(=O)c2ccccc2)cc1`, the Potency was inconclusive: 9.2 µM [activator, partial curve].
With `COC(CNC(=O)CNC(=S)N(Cc1ccccc1)Cc1cccnc1)OC` the Potency was “inactive”.
With `COC(=O)[C@H](CC(C)C)NC(=O)Cn1cnc2c(NCc3ccccc3)ncnc21` the Potency was “inactive”.
With `COc1cccc(CNCC(O)(c2ccc(Cl)cc2)c2ccc(Cl)cc2)c1` the Potency was inconclusive: 3.66 µM [inhibitor, single point].
In the case of `O=C(CCC(=O)Nc1nnc(C2CCCCC2)s1)NCc1ccc(F)cc1`, the Potency was “inactive”.
For `COc1cccc(NC(=S)NCc2ccccc2)c1`, the Potency was inconclusive: 16.4 µM [activator, single point].
For `COc1ccccc1C(=O)Nc1nnc(SCC(=O)Nc2ccc3c(c2)oc2ccccc23)s1`, the Potency was inconclusive: 4.11 µM [activator, full curve].
In the case of `Cc1ncc([N+](=O)[O-])n1CC(=O)Nc1ccccc1`, the Potency was inconclusive: 6.51 µM [activator, full curve, poor fit].
In the case of `Cc1c(-c2ccc(O)cc2)nc2nc(-c3ccccc3)c(-c3ccccc3)nn12`, the Potency was inconclusive: 5.17 µM [activator, full curve, poor fit].
With `CC(O)[C@H]1CC[C@H]2[C@@H]3CC[C@H]4C[C@H](O)CC[C@]4(C)[C@H]3[C@H](O)C[C@]12C` (stereo partly specified) the Potency was “inactive”.
With `O=C(Cn1sc2ccccc2c1=O)N1CCN(C(=O)c2ccco2)CC1` the Potency was “inactive”.
For `O=C1NC(c2ccccn2)Nc2sc3c(c21)CCC3` (stereo unspecified), the Potency was inconclusive: 14.6 µM [activator, partial curve].
For `COc1ccc(N(CC(=O)N/N=C(\C)CCc2ccccc2)S(=O)(=O)c2ccc(C)cc2)cc1`, the Potency was inconclusive: 29.1 µM [inhibitor, partial curve, poor fit].
For `CCOC(=O)c1ccc(NC(=O)CSc2nc3c(c(=O)n2C)SC(C)C3)cc1` (stereo unspecified), the Potency was active: 20.6 µM.
With `CCOC(=O)c1c(C)oc2c1c1c(c3ccccc32)OCN(Cc2cccnc2)C1` the Potency was inconclusive: 5.62 µM [activator, partial curve, poor fit].
For `COc1cc(/C=N/n2c(-c3ccc4c(c3)NC(=O)CO4)csc2=Nc2cccc(C)c2)ccc1O`, the Potency was active: 14.6 µM.
In the case of `CS(=O)(=O)NCc1ccc(C(=O)NC2CCCCC2)cc1`, the Potency was inconclusive: 23.1 µM [activator, single point].
With `Cc1ccc2cc(C#N)c(N3CCN(C)CC3)nc2c1` the Potency was “inactive”.
With `COc1ccc2[nH]c(=O)c(CN(C(C)=O)c3ccc(C)c(C)c3)cc2c1` the Potency was inconclusive: 2.24 µM [activator, partial curve].
In the case of `COc1ccc(N2CSC3=C(C#N)C(c4cc(OC)ccc4OC)CC(=O)N3C2)c(OC)c1` (stereo unspecified), the Potency was “inactive”.
For `COc1ccc2c(Cl)c(C(=O)NCC3CCCO3)sc2c1Cl` (stereo unspecified), the Potency was inconclusive: 5.8 µM [activator, partial curve, poor fit].
With `CCC(CO)Oc1cc(NCc2ccc(C(C)(C)C)cc2)c2ncn(C(C)C)c2c1` (stereo unspecified) the Potency was inconclusive: 18.3 µM [inhibitor, single point].
For `CCOC(=O)N1CCC(N2Cc3cccc(C(=O)NCc4ccc5c(c4)OCO5)c3C2=O)CC1`, the Potency was active: 23.1 µM.
In the case of `COc1ccccc1CCc1nnc(CCC(=O)NCCCOc2cccnc2)o1`, the Potency was “inactive”.
With `CC(C)(Oc1ccc(Cl)cc1)C(=O)NCc1n[nH]c(=O)c2ccccc12` the Potency was “inactive”.
With `O=[N+]([O-])c1ccc2c(c1)C(N1CCOCC1)/C(=C/COc1ccc(Cl)cc1Cl)O2` (stereo unspecified) the Potency was inconclusive: 10.3 µM [inhibitor, partial curve, poor fit].
In the case of `CC(=O)N/N=C(\N)c1nonc1N`, the Potency was inconclusive: 29.1 µM [activator, partial curve, poor fit].
For `COc1cc(C)c(S(=O)(=O)Nc2ccccc2F)cc1C`, the Potency was “inactive”.
In the case of `CC(=O)/C=C/c1ccccc1Oc1c(F)c(F)nc(F)c1F`, the Potency was inconclusive: 18.3 µM [activator, partial curve].
With `Cc1ccc(C)c(S(=O)(=O)C(C#N)c2nc3ccccc3nc2N2CC(C)OC(C)C2)c1` (stereo unspecified) the Potency was inconclusive: 25.9 µM [inhibitor, single point].
For `Cc1nc(C)c(-c2csc(Nc3ccc(S(N)(=O)=O)cc3)n2)s1`, the Potency was inconclusive: 29.1 µM [inhibitor, single point].
In the case of `O=C(NCCOc1nc(N2CCOCC2)nc(N2CCOCC2)n1)Nc1ccc(Cl)cc1`, the Potency was inconclusive: 11.6 µM [inhibitor, partial curve].
In the case of `Cc1nc(-c2ccccc2)sc1-c1nnc(C2CC2)o1`, the Potency was inconclusive: 16.4 µM [activator, partial curve].
For `O=C(c1ccccc1)c1cc(Cl)ccc1N1C(=O)C=CC1=O`, the Potency was inconclusive: 20.6 µM [activator, partial curve, poor fit].
In the case of `COc1ccc2oc(C(=O)OC(C)C(=O)NCc3ccccc3)c(C)c2c1` (stereo unspecified), the Potency was inconclusive: 16.4 µM [inhibitor, single point].
For `O=C(Cn1ccc(C(F)(F)F)n1)Nc1ccc(S(=O)(=O)NCc2ccco2)cc1`, the Potency was “inactive”.
In the case of `Cc1ccc(-c2cc3ccccc3nc2N)cc1`, the Potency was inconclusive: 8.2 µM [activator, partial curve].
For `CCN(CC)S(=O)(=O)c1ccc(N2CCOCC2)c(NC(=O)c2ccc(N3CCCC3=O)cc2)c1`, the Potency was inconclusive: 14.6 µM [inhibitor, single point].

Reference: PubChem BioAssay AID504467 (National Center for Advancing Translational Sciences (NCATS), 2011)
Potency means the concentration at half of the fitted maximal effect.
